Reference: the supplement of paper PMC10032668
The other results are listed elsewhere or left out. Only hits are listed; about a third recur on repeated control peptides.

Chains of the proteins cited; added tags and fusions are not shown.
FLNA, P21333, UniProt P21333, whole entry: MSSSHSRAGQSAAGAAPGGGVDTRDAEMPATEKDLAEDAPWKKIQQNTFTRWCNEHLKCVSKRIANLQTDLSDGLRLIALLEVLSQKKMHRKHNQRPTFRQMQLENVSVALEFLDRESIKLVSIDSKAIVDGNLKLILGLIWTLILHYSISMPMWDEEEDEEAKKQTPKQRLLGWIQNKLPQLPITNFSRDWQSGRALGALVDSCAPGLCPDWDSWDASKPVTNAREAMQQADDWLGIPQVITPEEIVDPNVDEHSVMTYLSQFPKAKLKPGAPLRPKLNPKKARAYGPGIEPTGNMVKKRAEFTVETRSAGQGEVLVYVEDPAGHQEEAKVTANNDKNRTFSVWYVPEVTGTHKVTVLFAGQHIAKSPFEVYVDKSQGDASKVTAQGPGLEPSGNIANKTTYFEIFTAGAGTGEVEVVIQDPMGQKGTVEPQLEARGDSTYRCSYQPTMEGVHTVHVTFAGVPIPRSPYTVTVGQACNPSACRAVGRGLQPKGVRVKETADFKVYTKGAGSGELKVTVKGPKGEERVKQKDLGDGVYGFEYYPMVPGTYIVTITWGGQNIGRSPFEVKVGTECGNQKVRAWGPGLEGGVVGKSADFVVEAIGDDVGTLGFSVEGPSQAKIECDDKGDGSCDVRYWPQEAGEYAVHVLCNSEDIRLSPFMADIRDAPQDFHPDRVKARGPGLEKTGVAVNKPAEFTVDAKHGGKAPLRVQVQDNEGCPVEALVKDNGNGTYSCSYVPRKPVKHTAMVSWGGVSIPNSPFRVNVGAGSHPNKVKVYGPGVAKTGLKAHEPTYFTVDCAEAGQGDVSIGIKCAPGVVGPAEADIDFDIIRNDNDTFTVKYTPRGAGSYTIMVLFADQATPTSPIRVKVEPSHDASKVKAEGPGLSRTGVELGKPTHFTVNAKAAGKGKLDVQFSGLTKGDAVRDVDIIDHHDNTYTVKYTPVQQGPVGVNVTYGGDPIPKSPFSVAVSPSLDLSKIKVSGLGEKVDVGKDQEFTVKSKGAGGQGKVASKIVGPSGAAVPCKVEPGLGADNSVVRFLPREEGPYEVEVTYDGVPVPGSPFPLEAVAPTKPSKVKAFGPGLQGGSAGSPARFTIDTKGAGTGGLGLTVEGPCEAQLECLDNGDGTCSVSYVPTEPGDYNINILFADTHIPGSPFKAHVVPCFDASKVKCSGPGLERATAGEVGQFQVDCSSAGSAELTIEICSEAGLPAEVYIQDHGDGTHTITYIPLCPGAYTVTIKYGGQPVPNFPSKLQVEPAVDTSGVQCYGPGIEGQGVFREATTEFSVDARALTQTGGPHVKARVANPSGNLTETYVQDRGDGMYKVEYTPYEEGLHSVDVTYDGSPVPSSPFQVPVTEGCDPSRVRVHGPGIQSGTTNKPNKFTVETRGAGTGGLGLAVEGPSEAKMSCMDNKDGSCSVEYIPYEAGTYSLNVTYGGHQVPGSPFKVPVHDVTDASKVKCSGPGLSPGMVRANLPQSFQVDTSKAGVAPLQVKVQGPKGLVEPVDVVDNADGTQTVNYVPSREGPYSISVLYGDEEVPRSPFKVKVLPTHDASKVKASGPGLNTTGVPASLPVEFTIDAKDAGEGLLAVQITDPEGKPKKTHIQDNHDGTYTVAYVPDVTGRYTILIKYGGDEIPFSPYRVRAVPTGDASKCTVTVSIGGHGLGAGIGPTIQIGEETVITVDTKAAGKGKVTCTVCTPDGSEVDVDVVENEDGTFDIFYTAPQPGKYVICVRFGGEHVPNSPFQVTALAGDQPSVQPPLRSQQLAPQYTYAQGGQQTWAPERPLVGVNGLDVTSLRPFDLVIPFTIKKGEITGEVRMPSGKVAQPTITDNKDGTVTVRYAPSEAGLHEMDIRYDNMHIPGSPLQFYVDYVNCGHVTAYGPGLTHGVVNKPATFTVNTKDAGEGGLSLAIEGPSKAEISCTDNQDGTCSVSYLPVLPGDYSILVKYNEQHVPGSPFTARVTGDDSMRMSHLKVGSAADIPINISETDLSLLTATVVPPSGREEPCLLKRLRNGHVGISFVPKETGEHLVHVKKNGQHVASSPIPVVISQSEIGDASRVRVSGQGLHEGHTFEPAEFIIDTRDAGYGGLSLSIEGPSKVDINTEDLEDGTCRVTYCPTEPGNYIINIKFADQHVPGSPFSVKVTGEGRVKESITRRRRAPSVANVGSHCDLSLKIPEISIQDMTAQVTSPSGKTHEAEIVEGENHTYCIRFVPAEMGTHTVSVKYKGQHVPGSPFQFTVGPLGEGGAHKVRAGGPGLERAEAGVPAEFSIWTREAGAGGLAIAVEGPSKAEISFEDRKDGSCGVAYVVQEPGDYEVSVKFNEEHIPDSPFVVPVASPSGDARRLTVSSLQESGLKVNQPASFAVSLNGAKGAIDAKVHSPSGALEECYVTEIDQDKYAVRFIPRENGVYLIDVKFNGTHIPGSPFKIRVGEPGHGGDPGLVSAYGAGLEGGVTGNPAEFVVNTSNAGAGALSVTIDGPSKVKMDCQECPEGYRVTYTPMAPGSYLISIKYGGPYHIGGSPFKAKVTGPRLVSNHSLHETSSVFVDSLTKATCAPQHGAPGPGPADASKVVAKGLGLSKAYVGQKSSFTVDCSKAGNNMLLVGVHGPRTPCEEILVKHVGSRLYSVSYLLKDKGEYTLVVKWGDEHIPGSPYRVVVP
SMARCA5, O60264, UniProt O60264, whole entry: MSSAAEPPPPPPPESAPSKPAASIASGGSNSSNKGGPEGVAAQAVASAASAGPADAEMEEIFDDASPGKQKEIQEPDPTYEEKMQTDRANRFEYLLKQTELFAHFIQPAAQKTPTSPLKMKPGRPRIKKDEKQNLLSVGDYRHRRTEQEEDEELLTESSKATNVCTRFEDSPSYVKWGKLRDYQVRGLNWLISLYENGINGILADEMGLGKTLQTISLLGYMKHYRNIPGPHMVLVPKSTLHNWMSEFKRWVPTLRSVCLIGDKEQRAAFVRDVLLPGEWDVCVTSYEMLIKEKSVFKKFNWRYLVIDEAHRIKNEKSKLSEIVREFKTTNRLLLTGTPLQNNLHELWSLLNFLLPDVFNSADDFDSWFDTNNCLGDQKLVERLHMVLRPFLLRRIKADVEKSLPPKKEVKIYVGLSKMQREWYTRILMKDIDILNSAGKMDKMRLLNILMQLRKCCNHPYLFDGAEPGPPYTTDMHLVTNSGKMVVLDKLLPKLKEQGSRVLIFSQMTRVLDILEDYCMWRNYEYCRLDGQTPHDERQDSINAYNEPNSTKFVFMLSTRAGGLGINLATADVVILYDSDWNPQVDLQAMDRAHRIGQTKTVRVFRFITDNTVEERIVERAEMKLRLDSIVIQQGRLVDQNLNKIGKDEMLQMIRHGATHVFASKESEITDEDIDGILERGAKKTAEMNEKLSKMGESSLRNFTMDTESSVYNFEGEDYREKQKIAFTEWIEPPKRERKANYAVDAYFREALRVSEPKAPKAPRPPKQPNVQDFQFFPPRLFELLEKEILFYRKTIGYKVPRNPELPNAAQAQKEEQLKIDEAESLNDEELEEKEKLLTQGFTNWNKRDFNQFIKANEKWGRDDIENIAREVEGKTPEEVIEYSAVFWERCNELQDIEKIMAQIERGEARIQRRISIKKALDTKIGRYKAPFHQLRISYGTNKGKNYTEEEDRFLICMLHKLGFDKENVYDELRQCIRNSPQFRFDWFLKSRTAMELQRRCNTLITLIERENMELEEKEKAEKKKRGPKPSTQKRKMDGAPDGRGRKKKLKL
RPS6KA3, P51812, UniProt P51812, whole entry: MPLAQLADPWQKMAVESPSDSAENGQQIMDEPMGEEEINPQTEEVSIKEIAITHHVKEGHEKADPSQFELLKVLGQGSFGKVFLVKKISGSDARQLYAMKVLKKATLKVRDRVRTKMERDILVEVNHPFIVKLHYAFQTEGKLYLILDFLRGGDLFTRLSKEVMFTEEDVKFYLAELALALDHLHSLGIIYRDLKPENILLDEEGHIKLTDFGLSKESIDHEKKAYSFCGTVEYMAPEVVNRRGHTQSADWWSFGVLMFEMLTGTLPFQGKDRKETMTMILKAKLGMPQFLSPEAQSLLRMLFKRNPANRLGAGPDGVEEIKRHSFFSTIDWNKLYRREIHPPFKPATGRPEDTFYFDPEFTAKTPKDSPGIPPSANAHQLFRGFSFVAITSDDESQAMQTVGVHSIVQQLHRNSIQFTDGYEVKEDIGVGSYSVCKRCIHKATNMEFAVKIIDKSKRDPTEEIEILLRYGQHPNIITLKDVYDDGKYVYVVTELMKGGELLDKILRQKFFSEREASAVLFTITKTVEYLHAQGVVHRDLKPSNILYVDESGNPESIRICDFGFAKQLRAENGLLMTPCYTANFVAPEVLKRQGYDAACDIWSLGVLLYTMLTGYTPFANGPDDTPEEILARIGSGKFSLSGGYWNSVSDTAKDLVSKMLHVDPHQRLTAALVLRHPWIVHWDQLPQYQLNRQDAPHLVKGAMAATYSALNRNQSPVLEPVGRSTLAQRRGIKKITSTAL

How the values were obtained:
Assay in all cases: PRISMA enrichment of interactor (LFQ) in peptide spot vs all other peptide spots (log2 fold change); higher = stronger / more specific binding of the interactor to the peptide
ANKRD17, O75179 = molecular target: ANKRD17, O75179
Description: (§1)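 PRISMA: 15-aa overlapping tiles (offset 8 aa) of 60 microproteins, plus SOS1/GLUT1 control peptides, were spot-synthesized on cellulose membranes in triplicate. Membranes were incubated with benzonase-treated HEK293T lysate, and bound proteins were identified by LC-MS/MS with LFQ. Enrichment is the log2 fold change of each protein in one spot versus all other spots. Only interactors passing the significance cutoff are listed.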

ATP5PB, P24539 = molecular target: ATP5PB, P24539
Description: as §1

ATXN2L, Q8WWM7 = molecular target: ATXN2L, Q8WWM7
Description: as §1

BOP1, Q14137 = molecular target: BOP1, Q14137
Description: as §1

CCDC86, Q9H6F5 = molecular target: CCDC86, Q9H6F5
Description: as §1

CEP290, O15078 = molecular target: CEP290, O15078
Description: as §1

DCAF1, Q9Y4B6 = molecular target: DCAF1, Q9Y4B6
Description: as §1

DDX42, Q86XP3 = molecular target: DDX42, Q86XP3
Description: as §1

ECH1, Q13011 = molecular target: ECH1, Q13011
Description: as §1

EIF5B, O60841 = molecular target: EIF5B, O60841
Description: as §1

FLNA, P21333 = molecular target: FLNA, P21333
Description: as §1

GART, P22102 = molecular target: GART, P22102
Description: as §1

GTF2E2, P29084 = molecular target: GTF2E2, P29084
Description: as §1

HYOU1, Q9Y4L1 = molecular target: HYOU1, Q9Y4L1
Description: as §1

KARS, Q15046 = molecular target: KARS, Q15046
Description: as §1

LARS2, Q15031 = molecular target: LARS2, Q15031
Description: as §1

NOL12, Q9UGY1 = molecular target: NOL12, Q9UGY1
Description: as §1

NTPCR, Q9BSD7 = molecular target: NTPCR, Q9BSD7
Description: as §1

NUP43, Q8NFH3 = molecular target: NUP43, Q8NFH3
Description: as §1

ORC6, Q9Y5N6 = molecular target: ORC6, Q9Y5N6
Description: as §1

PCGF6, Q9BYE7 = molecular target: PCGF6, Q9BYE7
Description: as §1

PDXDC1, Q6P996 = molecular target: PDXDC1, Q6P996
Description: as §1

PSMB6, P28072 = molecular target: PSMB6, P28072
Description: as §1

RRP7A, Q9Y3A4 = molecular target: RRP7A, Q9Y3A4
Description: as §1

SMARCA5, O60264 = molecular target: SMARCA5, O60264
Description: as §1

SRPRB, Q9Y5M8 = molecular target: SRPRB, Q9Y5M8
Description: as §1

TIMM8B, Q9Y5J9 = molecular target: TIMM8B, Q9Y5J9
Description: as §1

TMEM214, Q6NUQ4 = molecular target: TMEM214, Q6NUQ4
Description: as §1

TMEM263, Q8WUH6 = molecular target: TMEM263, Q8WUH6
Description: as §1

TRIM26, Q12899 = molecular target: TRIM26, Q12899
Description: as §1

UBIAD1, Q9Y5Z9 = molecular target: UBIAD1, Q9Y5Z9
Description: as §1

ARHGEF2, Q92974 = molecular target: ARHGEF2, Q92974
Description: as §1

ATP5F1D, P30049 = molecular target: ATP5F1D, P30049
Description: as §1

CHERP, Q8IWX8 = molecular target: CHERP, Q8IWX8
Description: as §1

DEF8, Q6ZN54 = molecular target: DEF8, Q6ZN54
Description: as §1

ESYT1, Q9BSJ8 = molecular target: ESYT1, Q9BSJ8
Description: as §1

HADHB, P55084 = molecular target: HADHB, P55084
Description: as §1

HSD17B4, P51659 = molecular target: HSD17B4, P51659
Description: as §1

MT-ATP6, P00846 = molecular target: MT-ATP6, P00846
Description: as §1

PDCL3, Q9H2J4 = molecular target: PDCL3, Q9H2J4
Description: as §1

RBM38, Q9H0Z9 = molecular target: RBM38, Q9H0Z9
Description: as §1

RPS6KA3, P51812 = molecular target: RPS6KA3, P51812
Description: as §1

SURF4, O15260 = molecular target: SURF4, O15260
Description: as §1

TARBP1, Q13395 = molecular target: TARBP1, Q13395
Description: as §1

UBE3C, Q15386 = molecular target: UBE3C, Q15386
Description: as §1

B1: MTLN (peptide)
chain: LQDKLAATQKKLDLA
PRISMA enrichment of interactor (log2) (ANKRD17, O75179): 4.48 | PRISMA enrichment of interactor (log2) (ATP5PB, P24539): 5.59 | PRISMA enrichment of interactor (log2) (ATXN2L, Q8WWM7): 5.36 | PRISMA enrichment of interactor (log2) (BOP1, Q14137): 4.41 | PRISMA enrichment of interactor (log2) (CCDC86, Q9H6F5): 5.99 | PRISMA enrichment of interactor (log2) (CEP290, O15078): 5.11 | PRISMA enrichment of interactor (log2) (DCAF1, Q9Y4B6): 5.39 | PRISMA enrichment of interactor (log2) (DDX42, Q86XP3): 6.65 | PRISMA enrichment of interactor (log2) (ECH1, Q13011): 5.46 | PRISMA enrichment of interactor (log2) (EIF5B, O60841): 5.6 | PRISMA enrichment of interactor (log2) (FLNA, P21333): 5.6 | PRISMA enrichment of interactor (log2) (GART, P22102): 5.08 | PRISMA enrichment of interactor (log2) (GTF2E2, P29084): 4.41 | PRISMA enrichment of interactor (log2) (HYOU1, Q9Y4L1): 6.31 | PRISMA enrichment of interactor (log2) (KARS, Q15046): 4.76 | PRISMA enrichment of interactor (log2) (LARS2, Q15031): 3.89 | PRISMA enrichment of interactor (log2) (NOL12, Q9UGY1): 4.62 | PRISMA enrichment of interactor (log2) (NTPCR, Q9BSD7): 5.24 | PRISMA enrichment of interactor (log2) (NUP43, Q8NFH3): 5.08 | PRISMA enrichment of interactor (log2) (ORC6, Q9Y5N6): 5.9 | PRISMA enrichment of interactor (log2) (PCGF6, Q9BYE7): 4.18 | PRISMA enrichment of interactor (log2) (PDXDC1, Q6P996): 5.4 | PRISMA enrichment of interactor (log2) (PSMB6, P28072): 6.86 | PRISMA enrichment of interactor (log2) (RRP7A, Q9Y3A4): 4.54 | PRISMA enrichment of interactor (log2) (SMARCA5, O60264): 5.15 | PRISMA enrichment of interactor (log2) (SRPRB, Q9Y5M8): 4.75 | PRISMA enrichment of interactor (log2) (TIMM8B, Q9Y5J9): 4.59 | PRISMA enrichment of interactor (log2) (TMEM214, Q6NUQ4): 4.64 | PRISMA enrichment of interactor (log2) (TMEM263, Q8WUH6): 5.55 | PRISMA enrichment of interactor (log2) (TRIM26, Q12899): 4.52 | PRISMA enrichment of interactor (log2) (UBIAD1, Q9Y5Z9): 4.06

B2: MIEF-MP (peptide)
chain: AVLSLYRALLRQGRQ
PRISMA enrichment of interactor (log2) (ANKRD17, O75179): 5.76 | PRISMA enrichment of interactor (log2) (ARHGEF2, Q92974): 5.17 | PRISMA enrichment of interactor (log2) (ATP5F1D, P30049): 5.3 | PRISMA enrichment of interactor (log2) (CHERP, Q8IWX8): 7.26 | PRISMA enrichment of interactor (log2) (DEF8, Q6ZN54): 4.86 | PRISMA enrichment of interactor (log2) (ESYT1, Q9BSJ8): 6.6 | PRISMA enrichment of interactor (log2) (HADHB, P55084): 7.28 | PRISMA enrichment of interactor (log2) (HSD17B4, P51659): 4.16 | PRISMA enrichment of interactor (log2) (MT-ATP6, P00846): 4.48 | PRISMA enrichment of interactor (log2) (PDCL3, Q9H2J4): 7.67 | PRISMA enrichment of interactor (log2) (RBM38, Q9H0Z9): 8.33 | PRISMA enrichment of interactor (log2) (RPS6KA3, P51812): 4.16 | PRISMA enrichment of interactor (log2) (SURF4, O15260): 4.71 | PRISMA enrichment of interactor (log2) (TARBP1, Q13395): 4.38 | PRISMA enrichment of interactor (log2) (UBE3C, Q15386): 4.73
